# Experimental data published in the supplement of paper PMC8728848.
# This is one part of the list.
# B1: PX14404-bvu-534-26-534 (Bacteroides vulgatus) (protein)
# chain: EDPRGKLTPENFFSTQDELNMSIYALYQKVNLSQVYTNMQLPQWQGDDITTNPGSNKQPAAEMDKFAAANNNKGVKDAWNMHYAIVKAANLIIQGASKTPTTQDEINIALGQAKFWRAYAYFTLVRLWGPLPMNLDNVNDDYTKPLSPVEEVYGHIVQDLTEAEAVLPTGYSGSPRFLNGVNVYVTRQAAKSTLAAVYMAMAGWPMNKTEYYAKAAEKAKEVIEGVNRGEYEYKLDKDYKDVYAMSNNYNNETVLGINYSPFVDWAQDSELTSCNQFESLGGWGDAWGEIRFWKEFPDGPRKDATYDPKIRLKDGTLVDWWELKEDGTPVVPEHHPMFSIFSVNWDPASKVNTSAPYDYTKPASQNMCNDHRHRIIRYSEVLLWYAEAKARTGQTDELAFKCLNDVRERAGLEPLTGLSADDLAEAAYKEHGWEVAGYWVALVTRRADQFRMNRLKDTFKERAENTAVEVADGILVKESVEYTNRTWSDNLMYLPYPDMDSQKNPNLVR
# Key:
# Assay in all cases: glycan array binding signal (z-score within array); higher = stronger binding
# Conditions in all cases: glycan notation: IUPAC condensed, linker removed
# [1] = molecular target: Gal(b1-4)GlcNAc(b1-3)Gal(b1-4)GlcNAc(b1-6)[Gal(b1-3)]GalNAc
# How it was run: (§1)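 From the Consortium for Functional Glycomics database, 3228 arrays were curated, keeping only those whose protein sequence was available. Binding is given as a within-array Z-score averaged across arrays sharing a protein sequence and across linkers. Negative Z-scores can be read as non-binding.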
# [2] = molecular target: Gal(b1-4)GlcNAc(b1-3)Gal(b1-4)[Fuc(a1-3)]GlcNAc(b1-3)Gal(b1-4)[Fuc(a1-3)]GlcNAc
# How it was run: as §1
# [3] = molecular target: Gal(b1-4)GlcNAc(b1-3)GalNAc
# How it was run: as §1
# [4] = molecular target: Gal(b1-4)GlcNAc(b1-3)[Fuc(a1-3)GlcNAc(b1-6)]Gal(b1-4)Glc
# How it was run: as §1
# [5] = molecular target: Gal(b1-4)GlcNAc(b1-3)[Gal(b1-4)GlcNAc(b1-6)]Gal(b1-4)GlcNAc
# How it was run: as §1
# [6] = molecular target: Gal(b1-4)GlcNAc(b1-3)[GlcNAc(b1-6)]Gal(b1-4)GlcNAc
# How it was run: as §1
# [7] = molecular target: Gal(b1-4)GlcNAc(b1-6)Gal(b1-4)GlcNAc
# How it was run: as §1
# [8] = molecular target: Gal(b1-4)GlcNAc(b1-6)GalNAc
# How it was run: as §1
# [9] = molecular target: Gal(b1-4)GlcNAc(b1-6)[Gal(b1-3)]GalNAc
# How it was run: as §1
# [10] = molecular target: Gal(b1-4)GlcNAc(b1-6)[Gal(b1-4)GlcNAc(b1-3)]GalNAc
# How it was run: as §1
# Gal(b1-4)GlcNAc6P = molecular target: Gal(b1-4)GlcNAc6P
# How it was run: as §1
# Gal(b1-6)Gal = molecular target: Gal(b1-6)Gal
# How it was run: as §1
# Gal3S(b1-3)GalNAc = molecular target: Gal3S(b1-3)GalNAc
# How it was run: as §1
# Gal3S(b1-3)GlcNAc = molecular target: Gal3S(b1-3)GlcNAc
# How it was run: as §1
# [11] = molecular target: Gal3S(b1-3)[Fuc(a1-4)]GlcNAc
# How it was run: as §1
# Gal3S(b1-4)Glc = molecular target: Gal3S(b1-4)Glc
# How it was run: as §1
# Gal3S(b1-4)Glc6S = molecular target: Gal3S(b1-4)Glc6S
# How it was run: as §1
# Gal3S(b1-4)GlcNAc = molecular target: Gal3S(b1-4)GlcNAc
# How it was run: as §1
# [12] = molecular target: Gal3S(b1-4)[Fuc(a1-3)]Glc6S
# How it was run: as §1
# [13] = molecular target: Gal3S(b1-4)[Fuc(a1-3)]GlcNAc
# How it was run: as §1
# [14] = molecular target: Gal3S(b1-4)[Fuc(a1-3)]GlcNAc6S
# How it was run: as §1
# Gal3S4S(b1-4)GlcNAc = molecular target: Gal3S4S(b1-4)GlcNAc
# How it was run: as §1
# Gal3S6S(b1-4)GlcNAc = molecular target: Gal3S6S(b1-4)GlcNAc
# How it was run: as §1
# Gal3S6S(b1-4)GlcNAc6S = molecular target: Gal3S6S(b1-4)GlcNAc6S
# How it was run: as §1
# Gal4S(b1-4)GlcNAc = molecular target: Gal4S(b1-4)GlcNAc
# How it was run: as §1
# Gal4S6S(b1-4)GlcNAc = molecular target: Gal4S6S(b1-4)GlcNAc
# How it was run: as §1
# Gal6P(b1-4)GlcNAc = molecular target: Gal6P(b1-4)GlcNAc
# How it was run: as §1
# Gal6S(b1-3)GlcNAc = molecular target: Gal6S(b1-3)GlcNAc
# How it was run: as §1
# Gal6S(b1-3)GlcNAc6S = molecular target: Gal6S(b1-3)GlcNAc6S
# How it was run: as §1
# Gal6S(b1-4)Glc = molecular target: Gal6S(b1-4)Glc
# How it was run: as §1
# Gal6S(b1-4)Glc6S = molecular target: Gal6S(b1-4)Glc6S
# How it was run: as §1
# Gal6S(b1-4)GlcNAc = molecular target: Gal6S(b1-4)GlcNAc
# How it was run: as §1
# Gal6S(b1-4)GlcNAc6S = molecular target: Gal6S(b1-4)GlcNAc6S
# How it was run: as §1
# GalNAc(a1-3)Gal = molecular target: GalNAc(a1-3)Gal
# How it was run: as §1
# GalNAc(a1-3)GalNAc = molecular target: GalNAc(a1-3)GalNAc
# How it was run: as §1
# [15] = molecular target: GalNAc(a1-3)GalNAc(b1-3)Gal(a1-4)Gal(b1-4)Glc
# How it was run: as §1
# [16] = molecular target: GalNAc(a1-3)GalNAc(b1-3)Gal(a1-4)Gal(b1-4)GlcNAc
# How it was run: as §1
binder,measurement,setting,value
B1,glycan array binding signal (z-score),[1],4.7
same,glycan array binding signal (z-score),[2],0.283
same,glycan array binding signal (z-score),[3],-0.885
same,glycan array binding signal (z-score),[4],-0.519
same,glycan array binding signal (z-score),[5],-0.831
same,glycan array binding signal (z-score),[6],-0.89
same,glycan array binding signal (z-score),[7],-0.548
same,glycan array binding signal (z-score),[8],-0.624
same,glycan array binding signal (z-score),[9],-0.167
same,glycan array binding signal (z-score),[10],0.13
same,glycan array binding signal (z-score),Gal(b1-4)GlcNAc6P,-0.926
same,glycan array binding signal (z-score),Gal(b1-6)Gal,-0.531
same,glycan array binding signal (z-score),Gal3S(b1-3)GalNAc,0.163
same,glycan array binding signal (z-score),Gal3S(b1-3)GlcNAc,0.469
same,glycan array binding signal (z-score),[11],-0.32
same,glycan array binding signal (z-score),Gal3S(b1-4)Glc,1.42
same,glycan array binding signal (z-score),Gal3S(b1-4)Glc6S,0.715
same,glycan array binding signal (z-score),Gal3S(b1-4)GlcNAc,0.66
same,glycan array binding signal (z-score),[12],1.84
same,glycan array binding signal (z-score),[13],0.687
same,glycan array binding signal (z-score),[14],1.45
same,glycan array binding signal (z-score),Gal3S4S(b1-4)GlcNAc,1.5
same,glycan array binding signal (z-score),Gal3S6S(b1-4)GlcNAc,0.039
same,glycan array binding signal (z-score),Gal3S6S(b1-4)GlcNAc6S,1.17
same,glycan array binding signal (z-score),Gal4S(b1-4)GlcNAc,-0.365
same,glycan array binding signal (z-score),Gal4S6S(b1-4)GlcNAc,-0.083
same,glycan array binding signal (z-score),Gal6P(b1-4)GlcNAc,-1.18
same,glycan array binding signal (z-score),Gal6S(b1-3)GlcNAc,0.074
same,glycan array binding signal (z-score),Gal6S(b1-3)GlcNAc6S,-1.01
same,glycan array binding signal (z-score),Gal6S(b1-4)Glc,1.21
same,glycan array binding signal (z-score),Gal6S(b1-4)Glc6S,3.4
same,glycan array binding signal (z-score),Gal6S(b1-4)GlcNAc,0.072
same,glycan array binding signal (z-score),Gal6S(b1-4)GlcNAc6S,0.237
same,glycan array binding signal (z-score),GalNAc(a1-3)Gal,0.178
same,glycan array binding signal (z-score),GalNAc(a1-3)GalNAc,-0.31
same,glycan array binding signal (z-score),[15],-0.736
same,glycan array binding signal (z-score),[16],-0.297

# Random excerpt: two records from the list
binder,measurement,setting,value
B1,glycan array binding signal (z-score),Gal6S(b1-4)Glc,1.21
same,glycan array binding signal (z-score),[5],-0.831
